From patent US9067970B2, “Anticancer agents comprising peptides with cancer-specific toxicity” (Korea Advanced Institute of Science and Technology, priority 2010, dated 2015)
Not every detail of the peptide structures is certain; ends, links or a residue may be inferred. Where no end group is shown, it is not given here.

Experiments:
Type in all cases: cell-based
[1] = test system: human malignant melanoma cell line (SK-MEL-5); assay: MTT viability of SK-MEL-5 cell line; settings: MTT in vitro, FIG. 4
[2] = test system: human cervical adenocarcinoma cell line (HeLa); assay: MTT viability of HeLa cell line; settings: MTT in vitro, FIG. 5
[3] = test system: human colon carcinoma cell line (HCT-116); assay: MTT viability of HCT-116 cell line; settings: MTT in vitro, FIG. 6
[4] = test system: human lung adenocarcinoma cell line (NCI-H23); assay: MTT viability of NCI-H23 cell line; settings: MTT in vitro, FIG. 7
[5] = test system: human erythroleukemia cell line (K-562); assay: MTT viability of K-562 cell line; settings: MTT in vitro, FIG. 8
[6] = test system: human prostate cancer cell line (PC3); assay: MTT viability of PC3 cell line; settings: MTT in vitro, FIG. 9

APKAMKLLKKLLKLQKKGI-NH2 [NKC, APKAMKLLKKLLKLQKKGI-amine]
very strong anticancer activity: anticancer activity against skin cancer cells [1] | anticancer activity against cervical cancer cells [2] | anticancer activity against rectal cancer cells [3] | anticancer activity against lung cancer cells [4] | anticancer activity against hematologic malignant cells [5] | anticancer activity against prostate cancer cells [6]

APKAMRLLRRLLRLQKKGI-NH2 [NRC, APKAMRLLRRLLRLQKKGI-amide]
very strong anticancer activity: anticancer activity against skin cancer cells [1] | anticancer activity against cervical cancer cells [2] | anticancer activity against rectal cancer cells [3] | anticancer activity against lung cancer cells [4] | anticancer activity against hematologic malignant cells [5] | anticancer activity against prostate cancer cells [6]
